The campaign covered roughly 400,000 compounds. About 13,000 (3.2%) were called active. This list was built around the results that the source calls inconclusive (neither active nor inactive); the mix of calls is not that of the screen. Calls come from the whole dose curve; as a rule, active = well fitted cell-killing curve with a large enough effect; inconclusive = small, poorly fitted or top-dose-only effect, or effect the other way; inactive = flat fitted curve, though single readings scatter. Where the call is inconclusive, the potency comes from a doubtful curve fit.
Experiment: qHTS assay for MDR1-selective chemotherapeutics: Primary screen using the drug-selected MDR subline cells KB-V1; note: nearly all actives have a fitted effect of over 60% in size
Details: KB-V1 MDR cells viability, CellTiter-Glo, 72 h; activity change, negative = cytotoxicity: at 46.1 µM (top of the series)
Method in brief: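 Readout: CellTiter-Glo luminescence, 10 min after addition. Cells: KB-V1 MDR subline, 72 h at 37 degrees C with compound. Analysis: corrected, normalized data fitted to concentration-effect curves.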
% is set by controls: 0 for no effect and ±100 for the full control effect; potency is the fitted concentration of half-maximal effect.

SMILES	Potency	activity change, negative = cytotoxicity
CC(C)c1ccc(/C=C2\C(=N)N3N=C(CC(=O)N4CCCCC4)SC3=NC2=O)cc1	inconclusive: 23.1 µM [rising, partial curve, poor fit]	
COc1ccc(N2CCN(C(=O)C3CCCN(c4ncnc5c4nc4n5CCCCC4)C3)CC2)cc1 (stereo not given)	inconclusive: 6.51 µM [cytotoxic, partial curve, poor fit]	
CCN=C1S/C(=C\c2cn(CC(=O)NCc3ccco3)c3ccccc23)C(=O)N1CC	inconclusive: 20.6 µM [cytotoxic, single point]	
CCOCN(C(=O)Cn1c(COC)nc2ccccc21)c1c(C)cccc1CC	inactive	
Cc1cc(/C=C(/C#N)c2nc3ccccc3[nH]2)c(C)n1-c1cccc([N+](=O)[O-])c1	inconclusive: 29.1 µM [cytotoxic, single point]	
O=C(c1ccc(COc2ccc(Br)cc2)o1)N1N=C(C(F)F)CC1(O)C(F)F (stereo not given)		inactive: 5.17%
COc1ccc(S(=O)(=O)N2CCN(C(=O)CN3C(=O)NC(C)(c4ccc5ccccc5c4)C3=O)CC2)cc1 (stereo not given)	inconclusive: 29.1 µM [rising, single point]	
CCOC(=O)C1(Cc2cccc(Cl)c2)CCCN(C(=O)C(C)(C)C)C1 (stereo not given)	inconclusive: 7.31 µM [rising, partial curve]	
CC1CN(C2=N/C(=C/c3ccc4c(c3)OCO4)C(=O)N2)CC(C)O1 (stereo not given)		inactive: 19.1%
COc1ccc(N(CC(=O)NCCSc2ccccn2)S(=O)(=O)c2ccccc2)c(OC)c1	inconclusive: 2.59 µM [cytotoxic, partial curve, poor fit]	
Nc1nc2cc(Cl)c(Br)cc2o1	inconclusive: 18.4 µM [cytotoxic, single point]	
O=C(Cc1ccccc1)Nc1ccc(-c2nnc(-c3ccco3)o2)cc1		inactive: 3.4%
Cn1nc(C(=O)NCC(c2cccs2)N2CCOCC2)c2ccccc2c1=O (stereo not given)	inconclusive: 29.1 µM [cytotoxic, single point]	
CCCC(=O)NC(c1cccs1)c1cc(Cl)c2cccnc2c1O (stereo not given)		inactive: -16.9%
O=C(NNc1c2ccccc2nc2ccccc12)c1ccccc1O	active: 20.6 µM	
CCCc1cc(=O)n2[nH]c(NCc3c(F)cccc3Cl)nc2n1	inconclusive: 18.4 µM [rising, partial curve, poor fit]	
O=S1(=O)N=C(c2ccccc2)c2ccccc21		inactive: -2.03%
CCCc1nnc2n1N=C(c1ccc(C)cc1)CS2		inactive: -5.64%
CCC(C)(C)NC(=O)C(c1cccn1C)N(C(=O)Cn1nnc2ccccc21)c1ccccc1OC (stereo not given)		inactive: -11.9%
COc1ccc(N2CCN(S(=O)(=O)c3ccc4c(c3)C(C(C)C)C(=O)N4)CC2)cc1 (stereo not given)	inconclusive: 18.4 µM [cytotoxic, partial curve, poor fit]	
CSCCn1c(C(C)(C)C)cc(C(=O)O)c1C	inconclusive: 25.9 µM [rising, partial curve, poor fit]	
Cn1nc(C(=O)NCC2COc3ccccc3O2)c2ccccc2c1=O (stereo not given)	inconclusive: 20.6 µM [cytotoxic, single point]	
Cc1cccc(NC(=O)CSc2nnc(CN3CCOCC3)n2C)c1C	inconclusive: 25.9 µM [rising, single point]	
Nc1nc(CCl)nc(Nc2cccc3ccccc23)n1	inconclusive: 16.4 µM [cytotoxic, partial curve]	

SMILES	Potency	activity change, negative = cytotoxicity
O=C1CSC(c2cn(-c3ccccc3)nc2-c2ccccc2)N1Cc1ccco1 (stereo not given)	inconclusive: 9.2 µM [cytotoxic, partial curve, poor fit]	
CC(=O)Cc1ccccc1OCC(=O)O		inactive: -3.03%
Cc1ccccc1-n1c(SCC(=O)N2CCOCC2)nc(O)c(Cc2ccccc2)c1=O	inconclusive: 13 µM [rising, partial curve]	
COc1ccccc1NS(=O)(=O)c1cc(C(=O)NCc2ccco2)ccc1C	inconclusive: 29.1 µM [cytotoxic, single point]	
CCCOc1ccc(C(=O)Nc2ccc(NC(=O)c3cccs3)cc2)cc1		inactive: 19.4%
Cc1ccc(C)c(-n2[nH]c3c4c(ccc3c2=O)C(=O)c2ccccc2C4=O)c1	inconclusive: 14.6 µM [cytotoxic, partial curve]	
NS(=O)(=O)c1ccc(O)c(NC(=O)c2ccc([N+](=O)[O-])o2)c1	inconclusive: 29.1 µM [cytotoxic, single point]	
CN(C)S(=O)(=O)c1ccc(NC(=O)C2CCCN(C(=O)c3ccc(Cl)cc3)C2)cc1 (stereo not given)		inactive: -13.1%
CCCCCn1c(CCCNC(=O)c2ccc(Cl)cc2)nc2ccccc21	inconclusive: 20.6 µM [cytotoxic, single point]	
COCCNC(=O)c1ccc(-n2c(SCc3cc(F)ccc3F)nc3ccccc3c2=O)cc1	active: 5.8 µM	
Cc1c(C=NCCOCc2ccccc2)cnn1C		inactive: 5.5%
COc1ccccc1CNC(=O)C(=O)NCC(c1ccco1)S(=O)(=O)c1ccc(C)cc1 (stereo not given)		inactive: 5.95%
CC(=O)c1ccc(OCC(=O)Nc2ccccc2C(=O)NC2CC2)cc1		inactive: -15.6%
Cc1ccc(C(=O)c2oc3ccccc3c2NC(=O)c2cc(-c3cc(C)ccc3O)n[nH]2)cc1		inconclusive: -27.1%
CCCCc1ccc(NC(=O)C(C)CC)cc1 (stereo not given)		inactive: 0%
Oc1ccccc1-c1cc(-c2ccco2)[nH]n1	inconclusive: 18.4 µM [cytotoxic, single point]	
NC(=O)C1CCN(C(=O)C2(NC(=O)Nc3cccc(F)c3)CCCCC2)CC1	inconclusive: 14.6 µM [rising, single point]	
CC(C)[C@@H](C(=O)NC1CCN(Cc2ccccc2)CC1)N1C(=O)N2CCc3c([nH]c4ccccc34)[C@@]2(C)C1=O	inconclusive: 29.1 µM [cytotoxic, single point]	
COc1ccc(C(=O)Nc2c(C(C)(C)C)nn(C)c2C(C)(C)C)cc1		inactive: 0.696%
COc1ccc(/C=C2\SC(=S)N(CCCC(=O)Nc3ccc(C(=O)O)cc3)C2=O)cc1OC		inactive: 14.2%
CCCCOc1c(Cl)cc(C(=O)N(C)CC(=O)Nc2ccc(N3CCOCC3)cc2)cc1OCC	inconclusive: 6.51 µM [cytotoxic, full curve]	
C=C(CN(C)C)C(=O)c1ccc(OC2OC(COC(C)=O)C(OC(C)=O)C(OC(C)=O)C2OC(C)=O)cc1 (stereo not given)	inconclusive: 18.4 µM [cytotoxic, single point]	
CN(C)c1ccc(/C=C/c2sc3ccccc3[n+]2C)cc1		inactive: 13.9%
Cc1cccc(NS(=O)(=O)c2cccc(C(=O)N3CCN(S(=O)(=O)c4ccccc4)CC3)c2)c1	inconclusive: 13 µM [cytotoxic, partial curve]	

Shown with bars between the fields: part of the list above.
SMILES | Potency | activity change, negative = cytotoxicity
COc1ccccc1NS(=O)(=O)c1cc(C(=O)NCc2ccco2)ccc1C | inconclusive: 29.1 µM [cytotoxic, single point] | 
CCCOc1ccc(C(=O)Nc2ccc(NC(=O)c3cccs3)cc2)cc1 |  | inactive: 19.4%
Cc1ccc(C)c(-n2[nH]c3c4c(ccc3c2=O)C(=O)c2ccccc2C4=O)c1 | inconclusive: 14.6 µM [cytotoxic, partial curve] | 
NS(=O)(=O)c1ccc(O)c(NC(=O)c2ccc([N+](=O)[O-])o2)c1 | inconclusive: 29.1 µM [cytotoxic, single point] | 
CN(C)S(=O)(=O)c1ccc(NC(=O)C2CCCN(C(=O)c3ccc(Cl)cc3)C2)cc1 (stereo not given) |  | inactive: -13.1%
CCCCCn1c(CCCNC(=O)c2ccc(Cl)cc2)nc2ccccc21 | inconclusive: 20.6 µM [cytotoxic, single point] | 
COCCNC(=O)c1ccc(-n2c(SCc3cc(F)ccc3F)nc3ccccc3c2=O)cc1 | active: 5.8 µM | 
Cc1c(C=NCCOCc2ccccc2)cnn1C |  | inactive: 5.5%
COc1ccccc1CNC(=O)C(=O)NCC(c1ccco1)S(=O)(=O)c1ccc(C)cc1 (stereo not given) |  | inactive: 5.95%
CC(=O)c1ccc(OCC(=O)Nc2ccccc2C(=O)NC2CC2)cc1 |  | inactive: -15.6%
Cc1ccc(C(=O)c2oc3ccccc3c2NC(=O)c2cc(-c3cc(C)ccc3O)n[nH]2)cc1 |  | inconclusive: -27.1%
CCCCc1ccc(NC(=O)C(C)CC)cc1 (stereo not given) |  | inactive: 0%
Oc1ccccc1-c1cc(-c2ccco2)[nH]n1 | inconclusive: 18.4 µM [cytotoxic, single point] | 
NC(=O)C1CCN(C(=O)C2(NC(=O)Nc3cccc(F)c3)CCCCC2)CC1 | inconclusive: 14.6 µM [rising, single point] | 
CC(C)[C@@H](C(=O)NC1CCN(Cc2ccccc2)CC1)N1C(=O)N2CCc3c([nH]c4ccccc34)[C@@]2(C)C1=O | inconclusive: 29.1 µM [cytotoxic, single point] | 
COc1ccc(C(=O)Nc2c(C(C)(C)C)nn(C)c2C(C)(C)C)cc1 |  | inactive: 0.696%
COc1ccc(/C=C2\SC(=S)N(CCCC(=O)Nc3ccc(C(=O)O)cc3)C2=O)cc1OC |  | inactive: 14.2%

Continuation:

SMILES	Potency	activity change, negative = cytotoxicity
CS(=O)(=O)c1cccc(C(=O)Nc2ccc3c(c2)OCCCO3)c1		inconclusive: 0%
Cc1cc(NC(=O)C(C)Sc2nc(-c3cccs3)nc3ccccc23)no1 (stereo not given)	inconclusive: 18.4 µM [cytotoxic, single point]	
COc1cccc(C(=O)N/N=C(/CCC(=O)O)c2ccccc2)c1		inactive: -12.7%
Cc1nnc(NC(=O)c2ccc(F)c(S(=O)(=O)N3CCCCC3)c2)s1	inconclusive: 29.1 µM [cytotoxic, single point]	
CNc1nc(Oc2cccc(NC(C)=O)c2)c2sccc2n1		inactive: -22.3%
CN(C)CCCNC(=O)c1ccc(CN(c2ccccc2)S(C)(=O)=O)cc1		inactive: 5.36%
Cc1ccc(Cl)cc1N1CCN(C(=O)c2noc(C(C)C)c2[N+](=O)[O-])CC1	inconclusive: 23.1 µM [cytotoxic, partial curve, poor fit]	
Cc1ccc(-n2cc(CNCCCN3CCCC3=O)c(-c3ccc(F)cc3)n2)cc1		inactive: 10.9%
COc1ccc2c(=O)c3c(=O)n(Cc4ccco4)c(-c4ccccc4)nc3oc2c1	active: 4.61 µM	
CCN(C(=O)CCc1nnc2ccc(NCc3ccco3)nn12)c1ccccc1	inconclusive: 23.1 µM [rising, single point]	
O=C(COC(=O)COc1ccccc1F)Nc1ccc(Cl)cn1	inconclusive: 29.1 µM [rising, single point]	
O=C(COC(=O)CNS(=O)(=O)/C=C/c1ccccc1)Nc1cccc2ccccc12		inactive: 5.8%
C=CCC[C@@H](CCCCC)OC(=O)/C=C/[C@@H](O)[C@H](O)C[C@H](O)CC=C	inconclusive: 23.1 µM [cytotoxic, partial curve]	
COc1ccc(CNCC(=O)Nc2cc(OC)cc(OC)c2)cc1	inconclusive: 29.1 µM [cytotoxic, single point]	
Cc1cc(C)cc(NCc2cc(=O)oc3cc(-c4ccccc4)c(O)cc23)c1	inconclusive: 18.4 µM [cytotoxic, partial curve]	
Cc1sc(NC(=O)c2ccccc2)c(C(c2ccc(Cl)cc2)N2CCN(CCO)CC2)c1C (stereo not given)	inconclusive: 23.1 µM [cytotoxic, single point]	
CC(C)(C)OC(=O)NCc1ccc(NC(=O)c2nc[nH]c2C(=O)NCCCNC(=O)c2[nH]cnc2C(=O)Nc2ccc(CNC(=O)OC(C)(C)C)cc2)cc1		inactive: 25.8%
Cc1cc(C)c(C(=O)CSc2nnc(-c3cccnc3)n2C)c(C)c1	inconclusive: 10.3 µM [cytotoxic, partial curve]	
Cc1ccc(NC(=O)C2CCCN(C(=O)c3ccc(Cl)cc3)C2)cc1C (stereo not given)	inconclusive: 9.2 µM [cytotoxic, partial curve]	
CN(C)N=Nc1ccc(-c2cn(Cc3ccccc3)cn2)cc1		inconclusive: -11.6%
C=Cc1ccc(CC2(C)C(=O)Nc3ccc(-c4cccnc4)cc32)cc1 (stereo not given)	inconclusive: 14.6 µM [cytotoxic, partial curve, poor fit]	
c1ccc2c(c1)ccn1c(Cc3ccsc3)c(C3CCCCC3)nc21		inactive: 0%
